Laboratory results reported in paper doi:10.1101/221093.
These are yes or no findings as the source states them, for the method shown. Binding seen in cells or lysates may run through a third protein. Some binding calls cover weakened binding; strength is not graded here.

Chains of the proteins cited; added tags and fusions are not shown.
UniProt Q99496: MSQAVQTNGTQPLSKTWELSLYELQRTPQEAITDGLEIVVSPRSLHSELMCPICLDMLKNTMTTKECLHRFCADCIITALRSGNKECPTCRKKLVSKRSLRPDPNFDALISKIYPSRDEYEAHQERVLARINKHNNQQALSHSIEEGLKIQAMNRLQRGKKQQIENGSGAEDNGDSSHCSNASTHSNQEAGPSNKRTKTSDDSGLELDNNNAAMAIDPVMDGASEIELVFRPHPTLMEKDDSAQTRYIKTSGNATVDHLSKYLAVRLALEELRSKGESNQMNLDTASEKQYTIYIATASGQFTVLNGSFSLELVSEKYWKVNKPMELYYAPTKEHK
UniProt Q9BSM1: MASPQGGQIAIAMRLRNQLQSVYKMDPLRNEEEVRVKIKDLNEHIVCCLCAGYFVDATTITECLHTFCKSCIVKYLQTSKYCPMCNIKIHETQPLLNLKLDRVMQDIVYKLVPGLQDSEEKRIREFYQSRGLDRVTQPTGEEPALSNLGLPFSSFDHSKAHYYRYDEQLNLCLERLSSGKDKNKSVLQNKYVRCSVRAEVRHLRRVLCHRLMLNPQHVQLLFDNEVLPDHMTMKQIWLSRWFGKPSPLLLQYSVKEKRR
UniProt Q93009: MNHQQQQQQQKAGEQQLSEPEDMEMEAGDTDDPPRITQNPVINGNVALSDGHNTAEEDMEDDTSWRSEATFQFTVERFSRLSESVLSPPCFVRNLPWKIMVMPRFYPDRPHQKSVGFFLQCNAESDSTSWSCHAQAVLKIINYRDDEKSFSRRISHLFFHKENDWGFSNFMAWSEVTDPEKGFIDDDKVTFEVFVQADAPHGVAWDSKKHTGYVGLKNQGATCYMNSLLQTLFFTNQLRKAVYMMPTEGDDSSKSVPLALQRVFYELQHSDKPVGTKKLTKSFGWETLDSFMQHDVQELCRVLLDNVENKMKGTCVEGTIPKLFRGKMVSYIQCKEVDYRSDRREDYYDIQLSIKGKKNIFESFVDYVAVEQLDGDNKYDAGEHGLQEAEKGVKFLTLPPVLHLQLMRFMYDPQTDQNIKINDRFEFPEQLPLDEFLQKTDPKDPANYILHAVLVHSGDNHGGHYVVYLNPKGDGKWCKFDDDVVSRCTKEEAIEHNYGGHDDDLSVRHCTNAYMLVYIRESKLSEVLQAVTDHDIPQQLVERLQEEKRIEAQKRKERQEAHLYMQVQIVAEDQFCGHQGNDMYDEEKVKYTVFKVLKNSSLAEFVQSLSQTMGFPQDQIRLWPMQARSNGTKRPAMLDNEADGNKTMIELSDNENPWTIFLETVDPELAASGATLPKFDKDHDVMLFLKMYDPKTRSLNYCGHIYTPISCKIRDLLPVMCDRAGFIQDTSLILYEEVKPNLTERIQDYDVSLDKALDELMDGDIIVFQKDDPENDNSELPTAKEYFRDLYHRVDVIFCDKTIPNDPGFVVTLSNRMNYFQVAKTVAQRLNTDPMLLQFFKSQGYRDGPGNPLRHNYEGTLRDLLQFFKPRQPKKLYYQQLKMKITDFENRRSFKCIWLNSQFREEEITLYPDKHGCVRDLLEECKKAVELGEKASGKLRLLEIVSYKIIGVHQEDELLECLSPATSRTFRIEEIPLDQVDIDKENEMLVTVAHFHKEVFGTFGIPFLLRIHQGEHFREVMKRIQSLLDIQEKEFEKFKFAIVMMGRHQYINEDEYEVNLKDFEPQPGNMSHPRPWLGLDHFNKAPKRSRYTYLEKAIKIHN

What was measured:
Experiment in all cases: co-IP
[1] = molecular target: T1, PCGF2 (bait of the pull out) (UniProt P35227)
T1 sequence: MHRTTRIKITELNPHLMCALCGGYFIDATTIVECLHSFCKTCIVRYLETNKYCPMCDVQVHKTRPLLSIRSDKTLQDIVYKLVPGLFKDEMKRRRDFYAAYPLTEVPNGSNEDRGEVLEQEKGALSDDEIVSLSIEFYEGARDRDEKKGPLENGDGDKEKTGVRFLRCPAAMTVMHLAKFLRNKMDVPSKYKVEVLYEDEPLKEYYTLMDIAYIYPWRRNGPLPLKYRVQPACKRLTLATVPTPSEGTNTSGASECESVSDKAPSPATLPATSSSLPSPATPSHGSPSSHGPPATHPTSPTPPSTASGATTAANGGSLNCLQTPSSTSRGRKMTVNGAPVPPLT

EGFP-RING1B = EGFP-RING1B (UniProt Q99496)
PCGF1-EGFP = PCGF1-EGFP (UniProt Q9BSM1)

Substance: endogenous RING1B (from UniProt Q99496 1-336)
- binding [1]: binds

Substance: ubiquitin-specific protease 7 (USP7) (from UniProt Q93009 1-1102) (enzyme)
- binding (EGFP-RING1B): binds
- binding (PCGF1-EGFP): binds
